This is an account of results in publication PMC10371808.

Sequences of proteins named here, by UniProt entry; tags and fusion partners are left off. A change or cut given only in a name is not applied to a line headed by its entry.
UniProt P9WG67, whole entry, looked up, stated change not applied: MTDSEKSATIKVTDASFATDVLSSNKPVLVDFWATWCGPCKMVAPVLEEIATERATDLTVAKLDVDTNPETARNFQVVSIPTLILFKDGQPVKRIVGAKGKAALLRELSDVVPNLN

Results are given in words; binding and its absence hold for the method and conditions named. In cells and extracts the contact can be indirect. These calls come from enrichment with a bait or labelling near it, and not all partners need be listed.

Test [1] concerns the target TrxC C40S (M. tuberculosis) (UniProt P9WG67). Kind of test: affinity purification with mass spectrometry; only the target purified.
The target of test [2] is T1, NrdH C14S (M. tuberculosis) (UniProt A5U767).
T1 sequence: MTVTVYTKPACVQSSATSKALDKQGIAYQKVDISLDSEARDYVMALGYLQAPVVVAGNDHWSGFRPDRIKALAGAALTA
The test is described as above.

B1: NrdF1 (enzyme, UniProt P9WH73 1-322)
chain: MTGKLVERVHAINWNRLLDAKDLQVWERLTGNFWLPEKIPLSNDLASWQTLSSTEQQTTIRVFTGLTLLDTAQATVGAVAMIDDAVTPHEEAVLTNMAFMESVHAKSYSSIFSTLCSTKQIDDAFDWSEQNPYLQRKAQIIVDYYRGDDALKRKASSVMLESFLFYSGFYLPMYWSSRGKLTNTADLIRLIIRDEAVHGYYIGYKCQRGLADLTDAERADHREYTCELLHTLYANEIDYAHDLYDELGWTDDVLPYMRYNANKALANLGYQPAFDRDTCQVNPAVRAALDPGAGENHDFFSGSGSSYVMGTHQPTTDTDWDF
Regarding B1, in test [1], the binding entry is reported as “binds”.

B2: Rv1462 (protein, UniProt P9WFP5 1-397)
chain: MTAPGLTAAVEGIAHNKGELFASFDVDAFEVPHGRDEIWRFTPLRRLRGLHDGSARATGSATITVSERPGVYTQTVRRGDPRLGEGGVPTDRVAAQAFSSFNSATLVTVERDTQVVEPVGITVTGPGEGAVAYGHLQVRIEELGEAVVVIDHRGGGTYADNVEFVVDDAARLTAVWIADWADNTVHLSAHHARIGKDAVLRHVTVMLGGDVVRMSAGVRFCGAGGDAELLGLYFADDGQHLESRLLVDHAHPDCKSNVLYKGALQGDPASSLPDAHTVWVGDVLIRAQATGTDTFEVNRNLVLTDGARADSVPNLEIETGEIVGAGHASATGRFDDEQLFYLRSRGIPEAQARRLVVRGFFGEIIAKIAVPEVRERLTAAIEHELEITESTEKTTVS
Consider B2, for which the binding result in test [1] is given as “binds”.

B3: Rv2624c (protein, UniProt P9WFD5 1-272)
chain: MSGRGEPTMKTIIVGIDGSHAAITAALWGVDEAISRAVPLRLVSVIKPTHPSPDDYDRDLAHAERSLREAQSAVEAAGKLVKIETDIPRGPAGPVLVEASRDAEMICVGSVGIGRYASSILGSTATELAEKAHCPVAVMRSKVDQPASDINWIVVRMTDAPDNEAVLEYAAREAKLRQAPILALGGRPEELREIPDGEFERRVQDWHHRHPDVRVYPITTHTGIARFLADHDERVQLAVIGGGEAGQLARLVGPSGHPVFRHAECSVLVVRR
As to B3, in test [1], the binding entry is “binds”.

B4: thiol peroxidase (TpX) (enzyme, UniProt P9WG35 1-165)
chain: MAQITLRGNAINTVGELPAVGSPAPAFTLTGGDLGVISSDQFRGKSVLLNIFPSVDTPVCATSVRTFDERAAASGATVLCVSKDLPFAQKRFCGAEGTENVMPASAFRDSFGEDYGVTIADGPMAGLLARAIVVIGADGNVAYTELVPEIAQEPNYEAALAALGA
On to B4, for which, in test [2], the binding result is reported as “binds”.

B5: Rv2623 (protein, UniProt P9WFD7 1-297)
chain: MSSGNSSLGIIVGIDDSPAAQVAVRWAARDAELRKIPLTLVHAVSPEVATWLEVPLPPGVLRWQQDHGRHLIDDALKVVEQASLRAGPPTVHSEIVPAAAVPTLVDMSKDAVLMVVGCLGSGRWPGRLLGSVSSGLLRHAHCPVVIIHDEDSVMPHPQQAPVLVGVDGSSASELATAIAFDEASRRNVDLVALHAWSDVDVSEWPGIDWPATQSMAEQVLAERLAGWQERYPNVAITRVVVRDQPARQLVQRSEEAQLVVVGSRGRGGYAGMLVGSVGETVAQLARTPVIVARESLT
As for B5, in test [1], the binding result is “binds”.
